Measurements from patent US20150274840A1 (GENEFRONTIER, published 2015).
These are yes or no findings as the source states them, for the method shown. Some entries that bind do so weakly or less than the wild type. For part of these data: Tags and fused reporters may be left off the sequences shown.

Key:
[1] = biological target: T1, fusion protein comprising the amino acid sequence shown in SEQ ID NO: 23 added to the C-terminal of MBP (human); test: dot blot of an E. coli lysate expressing the MBP fusion
T1 sequence: LFNAPLPT

[2] = biological target: T2, human ADAM28 recombinant protein (rhADAM28), full length (human) (UniProt Q9UKQ2); test: selected by ELISA using rhADAM28; immunoblotting of recombinant human ADAM28
T2 sequence (looked up): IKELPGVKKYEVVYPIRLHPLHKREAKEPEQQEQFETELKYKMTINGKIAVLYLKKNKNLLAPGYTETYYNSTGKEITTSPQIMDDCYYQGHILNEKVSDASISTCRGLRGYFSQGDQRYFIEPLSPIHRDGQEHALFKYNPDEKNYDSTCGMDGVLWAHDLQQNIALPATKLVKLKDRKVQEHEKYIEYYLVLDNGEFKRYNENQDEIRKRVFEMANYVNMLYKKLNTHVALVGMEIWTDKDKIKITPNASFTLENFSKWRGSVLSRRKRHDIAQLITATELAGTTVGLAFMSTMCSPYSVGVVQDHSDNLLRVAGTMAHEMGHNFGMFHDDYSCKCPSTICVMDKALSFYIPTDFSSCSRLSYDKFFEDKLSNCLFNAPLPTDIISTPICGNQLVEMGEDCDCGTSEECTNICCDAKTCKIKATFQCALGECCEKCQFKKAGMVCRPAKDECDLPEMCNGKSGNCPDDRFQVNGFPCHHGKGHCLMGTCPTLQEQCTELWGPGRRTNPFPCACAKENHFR

[3] = biological target: T3, peptide #65 of the human ADAM28s peptide array (…) (human); test: peptide array, HRP-labeled antibody
T3 sequence (peptide): LSNCLFNAPLPT

[4] = biological target: T4, peptide #66 of the human ADAM28s peptide array (…) (human); test: peptide array, HRP-labeled antibody
T4 sequence (peptide): CLFNAPLPTDII

[5] = biological target: T5, fusion protein of region 511-530 of human ADAM28s added to the C-terminal of MBP (human); test: Western blotting of MBP fusion proteins
T5 sequence: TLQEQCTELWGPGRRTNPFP

[6] = biological target: T6, fusion protein of region 517-526 of human ADAM28s added to the C-terminal of MBP (human); test: Western blotting of MBP fusion proteins
T6 sequence: TELWGPGRRT

Measured: binding

B1: mouse anti-human ADAM28 monoclonal antibody 297-2F3 (antibody, V domains shown)
VH: EVKLEESGGGLVQPGGSMKLSCAASGFTFSDAWMDWVRQSPEKGLEWVAEIRSKANNHAIYYAESVKGRFTISRDDSKSSVYLQMNNLRAEDTGIYYCTGFAYWGQGTLVTVSA
VL: DVVMTQTPLSLPVSLGDKASISCRSSQSLVLSNGNTYLNWYLQKPGQSPKLLIYKISARFSGVPDRFSGSGSGTDFTLRISRVEAEDLGVYFCSQTAHVPWTFGGGTKLEIKR
binds: [1] | [2] | [3] | [4]

B2: anti-human ADAM28 human antibody 211-14 (antibody, V domains shown)
VH: QVQLQQSGPGLVKPSQTLSLTCAISGDSVSSNTAAWGWIRQSPGRGLEWLGVIYYRSKWYNDYAVSVKSRITINPDTSKNQFSLQLNSVTPEDTAVYYCARYKESIPEYGFDFWGQGTLVTVSS
VL: DIVMTQSPLSLPVTPGEPASISCRSSQSLLYSNGYIYLNWYLQKPGQSPQLLIYLGSNRASGVPDRFSGSGSGTDFTLKISRVEAEDVGVYYCFQYGGSPLTFGQGTKVEIKR
notes: Clone from the HuCAL GOLD phage library, first made as Fab, then converted to IgG (heavy chain constant region IgG1)
binds: [5] | [6]
